In article doi:10.1101/2025.07.23.666473 one finds binding data, which are given here for one substance.

Amino acid sequences for entries named in this document (tags omitted).
UniProt P23242: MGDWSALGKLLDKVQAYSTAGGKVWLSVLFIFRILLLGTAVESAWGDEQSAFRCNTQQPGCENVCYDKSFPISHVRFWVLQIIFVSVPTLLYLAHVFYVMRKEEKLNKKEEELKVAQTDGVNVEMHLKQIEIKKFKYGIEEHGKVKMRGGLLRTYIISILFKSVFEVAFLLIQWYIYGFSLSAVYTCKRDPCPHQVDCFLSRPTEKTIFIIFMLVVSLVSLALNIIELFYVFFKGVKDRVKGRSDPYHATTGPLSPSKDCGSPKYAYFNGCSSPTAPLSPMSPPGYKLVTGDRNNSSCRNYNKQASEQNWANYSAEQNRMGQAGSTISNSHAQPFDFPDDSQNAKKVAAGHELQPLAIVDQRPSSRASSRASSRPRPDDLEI

Results are given in words; binding and its absence hold for the method and conditions named. Binding seen in cells or lysates may run through a third protein. Some binding calls cover weakened binding; strength is not graded here.

In the assay the target is NaV1.5 (mouse (endogenous in heart)) (UniProt Q9JJV9). In words: co-IP.

For Connexin 43 (from UniProt P23242 1-382), the binding entry was “binds”.
